Laboratory results from patent US20240117038A1.
Numbering of substitutions follows the chain as printed. Results are given in words; binding and its absence hold for the method and conditions named. Some binding calls cover weakened binding; strength is not graded here.

Amino acid sequences for entries named in this document (tags omitted). A change or cut given only in a name is not applied to a line headed by its entry.
UniProt P49238: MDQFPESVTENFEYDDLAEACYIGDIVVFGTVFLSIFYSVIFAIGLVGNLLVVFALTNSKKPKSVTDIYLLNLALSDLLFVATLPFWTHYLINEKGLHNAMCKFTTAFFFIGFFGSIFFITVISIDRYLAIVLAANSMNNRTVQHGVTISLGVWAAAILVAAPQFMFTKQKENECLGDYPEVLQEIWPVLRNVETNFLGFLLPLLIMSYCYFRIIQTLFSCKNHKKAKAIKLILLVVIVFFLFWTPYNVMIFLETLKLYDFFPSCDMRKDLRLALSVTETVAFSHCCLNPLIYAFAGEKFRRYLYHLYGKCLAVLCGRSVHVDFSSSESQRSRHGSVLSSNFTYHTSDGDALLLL

Assays:
[1] = target: human CX3CR1 (human) (UniProt P49238); assay: flow cytometry on CHO K1 huCX3CR1 cells, 30 uM HSA
[2] = target: cynomolgus CX3CR1 (cynomolgus monkey (Macaca fascicularis)); assay: flow cytometry on CHO K1 cyCX3CR1 cells, 30 uM HSA
[3] = target: human CX3CR1 (human) (UniProt P49238); assay: flow cytometry on transiently transfected HEK293T cells
[4] = target: human CX3CR1 T280M (human) (UniProt P49238); assay: as above
[5] = target: human CX3CR1 V249I (human) (UniProt P49238); assay: as above
[6] = target: human CX3CR1 V249I/T280M (human) (UniProt P49238); assay: as above

Measured: binding

B1: A041600026 (VHH)
chain: DVQLVESGGGSVQPGGSLRLSCAASGSIFSSTAMAWYRQAPGKRRDLVAAINTVGVTKYADSVKGRFTISRDNAKNTVYLQMNSLRPEDTALYYCTSDPRRGWDTRYWGQGTLVTVSSGGGGSGGGGSGGGGSGGGGSEVQLVESGGGVVQPGGSLRLSCAASGFTFRSFGMSWVRQAPGKGPEWVSSISGSGSDTLYADSVKGRFTISRDNSKNTLYLQMNSLRPEDTALYYCTIGGSLSRSSQGTLVTVSSGGGGSGGGGSGGGGSGGGGSEVQLVESGGGSVQPGGSLRLSCAASGSIFSSTAMAWYRQAPGKRRDLVAAINTVGVTKYADSVKGRFTISRDNAKNTVYLQMNSLRPEDTALYYCTSDPRRGWDTRYWGQGTLVTVSSA
binds: [1] | [2]

B2: A041600034 (VHH)
chain: DVQLVESGGGSVQPGGSLRLSCAASGSIFSSTAMAWYRQAPGKQRDLVAVISTVGITKYADSVKGRFTISRDNAKNTVYLQMNSLRPEDTALYYCTSDARRGWDTRYWGQGTLVTVSSGGGGSGGGSEVQLVESGGGVVQPGGSLRLSCAASGFTFRSFGMSWVRQAPGKGPEWVSSISGSGSDTLYADSVKGRFTISRDNSKNTLYLQMNSLRPEDTALYYCTIGGSLSRSSQGTLVTVSSGGGGSGGGSEVQLVESGGGSVQPGGSLRLSCAASGSIFSSTAMAWYRQAPGKRRDLVAAINTVGVTKYADSVKGRFTISRDNAKNTVYLQMNSLRPEDTALYYCTSDPRRGWDTRYWGQGTLVTVSSA
binds: all assays above

B3: A041600010 (VHH)
chain: B2 chain with Q44R, V50A, S52N, I56V, A99P
binds: [1] | [2]
